In PubChem BioAssay AID226 (DTP/NCI, 2004):
The list does not hold the whole screen: it gathers tests that were run many times, whatever their T/C, doses with no T/C, and many T/C values between a quarter and a half above the control. Further doses and runs are listed elsewhere. T/C: endpoint of the treated group in % of that of the vehicle group. Some entries give survivors of the animals treated and no T/C: the source files T/C as zero there, which appears to mark a toxic dose or a test without result, not a measured value. Some doses without a T/C left all or most animals alive at the check, yet need not have been tolerated: the source hardly ever lists a survival T/C far under the control, and the zero likely stands for such cases as well. Survivors were counted at the toxicity check, usually on the fifth day, unless a day is given; later deaths do not show. Schedules are NCI's codes, read here as Q, the interval in days (D) or hours (H), X, the number of doses. Marks such as (2×) stand for listed records that agree. Some entries hold several experiments; the results are listed from low to high. Some schedule codes hold Z or #, which are not explained here. For survival time, this PubChem deposit counts one and a half times the control or more as active, and values a quarter to a half above the control carry no call in these data; other NCI protocols may use other cut-offs. Some T/C values are followed by the survivors on the day toxicity was checked, most often the fifth; where none is given, no animal had died by that day.

Test system: B6C3F1 mice, intracerebral ependymoblastoma, median survival T/C
Experiment: NCI In Vivo Anticancer Drug Screen. Data for tumor model Ependymoblastoma (intracerebral) in B6C3F1 mice
Settings: T/C endpoint: median survival time, higher T/C = longer survival
Method: The antitumor activity of compounds was measured in mice bearing transplantable tumors. Survival or tumor size were measured and the results are expressed as the measurement made in the treated group (T) divided by the measurement made in the vehicle treated control group (C). The tumor model used in this assay is Ependymoblastoma (intracerebral) in B6C3F1 mice

[1] = dose: 6.25 mg/kg/injection, schedule: Q01DX009 (ip), vehicle: clinical formulation
[2] = dose: 100.0 mg/kg/injection, schedule: Q01DX005 (ip), vehicle: saline with Tween-80
[3] = dose: 200.0 mg/kg/injection, schedule: Q01DX009 (ip), vehicle: saline with Tween-80

In the case of `CO[C@H]1C[C@@H]2CC[C@@H](C)[C@@](O)(O2)C(=O)C(=O)N2CCCC[C@H]2C(=O)O[C@H]([C@H](C)C[C@@H]2CC[C@@H](O)[C@H](OC)C2)CC(=O)[C@H](C)C=C(C)[C@@H](O)[C@@H](OC)C(=O)[C@H](C)C[C@H](C)/C=C/C=C/C=C1C`, the T/C (dose: 3.12 mg/kg/injection, schedule: Q01DX009 (ip), vehicle: clinical formulation) is reported as 138 % of control, the T/C (dose: 3.12 mg/kg/injection, schedule: Q01DX009 (ip), vehicle: saline with Tween-80) is reported as 130 and 132 % of control and the T/C [1] is reported as 130 % of control. For the same compound, the survivor count [1] was 10 of 10, the T/C (dose: 6.25 mg/kg/injection, schedule: Q01DX009 (ip), vehicle: saline with Tween-80) was 137 and 144 % of control [9 of 10 alive] and the T/C (dose: 12.5 mg/kg/injection, schedule: Q01DX005 (ip), vehicle: saline with Tween-80) was 112 [9 of 10 alive], 136, 137, 141 % of control. For the same compound, the T/C (dose: 12.5 mg/kg/injection, schedule: Q01DX009 (ip), vehicle: clinical formulation) was 128 [9 of 10 alive] and 133 % of control, the T/C (dose: 12.5 mg/kg/injection, schedule: Q01DX009 (ip), vehicle: saline with Tween-80) was 94, 146, 150, 178 % of control and the T/C (dose: 25.0 mg/kg/injection, schedule: Q01DX005 (ip), vehicle: saline with Tween-80) was 134, 140, 150, 219 % of control. The T/C (dose: 25.0 mg/kg/injection, schedule: Q01DX009 (ip), vehicle: clinical formulation) was 146 % of control, the T/C (dose: 25.0 mg/kg/injection, schedule: Q01DX009 (ip), vehicle: saline with Tween-80) was 136, 187, 189, 201 % of control and the T/C (dose: 50.0 mg/kg/injection, schedule: Q01DX005 (ip), vehicle: saline with Tween-80) was 92, 125, 149, 186 % of control. For the same compound, the T/C (dose: 50.0 mg/kg/injection, schedule: Q01DX009 (ip), vehicle: saline with Tween-80) was 89, 138, 187 [9 of 10 alive], 211 % of control, the T/C [2] was 127, 152 [7 of 10 alive], 195 % of control and the survivor count [2] was 10 of 10. For the same compound, the T/C (dose: 100.0 mg/kg/injection, schedule: Q01DX009 (ip), vehicle: saline with Tween-80) was 143, 150, 178, 214 % of control, the survivor count (dose: 200.0 mg/kg/injection, schedule: Q01DX009 (ip), vehicle: clinical formulation) was 6 of 10 and 7 of 10 and the survivor count (dose: 200.0 mg/kg/injection, schedule: Q01DX009 (ip), vehicle: gum acacia) was 10 of 10. The T/C [3] was 100, 162, 243 % of control, the survivor count [3] was 10 of 10 and the survivor count (dose: 400.0 mg/kg/injection, schedule: Q01DX009 (ip), vehicle: saline with Tween-80) was 10 of 10.
For `CN(C)N=Nc1ccc([N+](=O)[O-])cc1C(N)=O`, the T/C (dose: 256.0 mg/kg/injection, schedule: Q01DX005 (ip), vehicle: saline with Tween-80) was 138 % of control and the survivor count (dose: 512.0 mg/kg/injection, schedule: Q01DX005 (ip), vehicle: saline with Tween-80) was 0 of 10.
For `Nc1ncn(C2OC(CO)C(O)C2O)c(=O)n1` (centres undefined), the T/C (dose: 4.69 mg/kg/injection, schedule: Q03HX024 (ip), vehicle: saline) was 141 % of control, the survivor count (dose: 6.0 mg/kg/injection, schedule: Q01DX005 (ip), vehicle: saline) was 10 of 10 and the survivor count (dose: 18.75 mg/kg/injection, schedule: Q03HX024 (ip), vehicle: saline) was 10 of 10. For the same compound, the survivor count (dose: 37.5 mg/kg/injection, schedule: Q03HX024 (ip), vehicle: saline) was 10 of 10 and the survivor count (dose: 75.0 mg/kg/injection, schedule: Q03HX024 (ip), vehicle: saline) was 10 of 10.
`O=P1(NCCCl)OCCCN1CCCl` (centres undefined) was tested, and the T/C (dose: 400.0 mg/kg/injection, schedule: Q01DX001 (ip), vehicle: water) was 125 % of control.
For `OCC1OC(n2cnc3c2NC=NC[C@H]3O)CC1O` (some centres undefined), the survivor count (dose: 0.5 mg/kg/injection, schedule: Q12HX010 (ip), vehicle: saline) was 10 of 10, the survivor count (dose: 0.5 mg/kg/injection, schedule: Q#ADX018 (ip), vehicle: saline) was 10 of 10 and the T/C (dose: 1.0 mg/kg/injection, schedule: Q01DX005 (ip), vehicle: saline, evaluated on day 30) was 106 % of control. The T/C (dose: 1.0 mg/kg/injection, schedule: Q01DX005 (ip), vehicle: saline, evaluated on day 60) was 96, 103, 108 (2×), 109 % of control [9 of 10 alive], the survivor count (dose: 1.0 mg/kg/injection, schedule: Q01DX009 (ip), vehicle: saline) was 10 of 10 and the survivor count (dose: 1.0 mg/kg/injection, schedule: Q12HX010 (ip), vehicle: saline) was 10 of 10. The survivor count (dose: 1.0 mg/kg/injection, schedule: Q#A X010 (ip), vehicle: saline) was 9 of 10, the survivor count (dose: 1.0 mg/kg/injection, schedule: Q#ADX018 (ip), vehicle: saline) was 10 of 10 and the T/C (dose: 2.0 mg/kg/injection, schedule: Q01DX005 (ip), vehicle: saline, evaluated on day 30) was 86 % of control. For the same compound, the T/C (dose: 2.0 mg/kg/injection, schedule: Q01DX005 (ip), vehicle: saline, evaluated on day 60) was 99 [9 of 10 alive], 103, 104, 107 % of control, the survivor count (dose: 2.0 mg/kg/injection, schedule: Q01DX005 (ip), vehicle: saline) was 10 of 10 and the survivor count (dose: 2.0 mg/kg/injection, schedule: Q01DX009 (ip), vehicle: saline) was 10 of 10. For the same compound, the survivor count (dose: 2.0 mg/kg/injection, schedule: Q12HX010 (ip), vehicle: saline) was 9 of 10, the survivor count (dose: 2.0 mg/kg/injection, schedule: Q#A X010 (ip), vehicle: saline) was 10 of 10 and the survivor count (dose: 4.0 mg/kg/injection, schedule: Q01DX005 (ip), vehicle: saline) was 9 of 10 (2×) and 10 of 10 (3×). The survivor count (dose: 4.0 mg/kg/injection, schedule: Q01DX009 (ip), vehicle: saline) was 10 of 10, the survivor count (dose: 4.0 mg/kg/injection, schedule: Q12HX010 (ip), vehicle: saline) was 7 of 10 and the survivor count (dose: 4.0 mg/kg/injection, schedule: Q#A X010 (ip), vehicle: saline) was 8 of 10. The survivor count (dose: 8.0 mg/kg/injection, schedule: Q01DX005 (ip), vehicle: saline) was 9 of 10 (2×) and 10 of 10 (2×), the survivor count (dose: 8.0 mg/kg/injection, schedule: Q01DX009 (ip), vehicle: saline) was 10 of 10 and the survivor count (dose: 8.0 mg/kg/injection, schedule: Q12HX010 (ip), vehicle: saline) was 7 of 10. The survivor count (dose: 8.0 mg/kg/injection, schedule: Q#A X010 (ip), vehicle: saline) was 5 of 10 and the survivor count (dose: 16.0 mg/kg/injection, schedule: Q01DX005 (ip), vehicle: saline) was 7 of 10 and 9 of 10 (2×).
`S=P(N1CC1)(N1CC1)N1CC1.[Cl-].[Cl-].[NH2-].[NH2-].[Pt+4]` was tested, and the T/C (dose: 3.0 mg/kg/injection, schedule: Q01DX005 (ip), vehicle: dextrose) was 148 % of control [9 of 10 alive], the survivor count (dose: 6.0 mg/kg/injection, schedule: Q01DX005 (ip), vehicle: dextrose) was 10 of 10 and the survivor count (dose: 12.0 mg/kg/injection, schedule: Q01DX005 (ip), vehicle: dextrose) was 10 of 10 (2×). The survivor count (dose: 24.0 mg/kg/injection, schedule: Q01DX005 (ip), vehicle: dextrose) was 4 of 10 and 7 of 10 and the survivor count (dose: 48.0 mg/kg/injection, schedule: Q01DX005 (ip), vehicle: dextrose) was 2 of 10 (2×).
With `COC12C(COC(N)=O)C3=C(C(=O)C(C)=C(N)C3=O)N1CC1C2N1C` (centres undefined) the T/C (dose: 8.0 mg/kg/injection, schedule: Q01DX005 (ip), vehicle: Klucel (hydroxypropylcellulose) (HPC)) was 127 and 131 % of control, the survivor count (dose: 16.0 mg/kg/injection, schedule: Q01DX005 (ip), vehicle: Klucel (hydroxypropylcellulose) (HPC)) was 9 of 10 and 10 of 10 and the survivor count (dose: 32.0 mg/kg/injection, schedule: Q01DX005 (ip), vehicle: Klucel (hydroxypropylcellulose) (HPC)) was 9 of 10.
In the case of `OCC1OC(n2cnc3c(SCc4ccccc4)ncnc32)C(O)C1O` (centres undefined), the survivor count (dose: 300.0 mg/kg/injection, schedule: Q01DX005 (ip), vehicle: saline with Tween-80) is reported as 7 of 10.
`O=c1[nH]cc(F)c(=O)[nH]1` was tested, and the survivor count (dose: 64.0 mg/kg/injection, schedule: Q01DX005 (ip), vehicle: saline) was 10 of 10, the survivor count (dose: 128.0 mg/kg/injection, schedule: Q01DX005 (ip), vehicle: saline) was 10 of 10 and the survivor count (dose: 256.0 mg/kg/injection, schedule: Q01DX005 (ip), vehicle: saline) was 10 of 10.
